This passage reports binding results from paper PMC3789785.

Chains of the proteins cited; added tags and fusions are not shown. Lines headed by an entry give the natural chain unless they say otherwise; changes in a name come on top.
UniProt Q84UV7: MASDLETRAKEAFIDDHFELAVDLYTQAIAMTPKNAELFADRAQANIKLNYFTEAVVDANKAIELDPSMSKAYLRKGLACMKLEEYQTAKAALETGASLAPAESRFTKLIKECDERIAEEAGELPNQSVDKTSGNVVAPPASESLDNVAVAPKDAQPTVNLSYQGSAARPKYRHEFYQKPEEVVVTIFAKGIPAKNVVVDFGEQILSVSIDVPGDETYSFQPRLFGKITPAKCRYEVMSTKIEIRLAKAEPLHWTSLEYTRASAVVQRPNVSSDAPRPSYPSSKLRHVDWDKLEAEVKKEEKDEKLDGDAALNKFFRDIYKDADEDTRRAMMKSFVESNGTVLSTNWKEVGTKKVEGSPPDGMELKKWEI
UniProt U5HUF9: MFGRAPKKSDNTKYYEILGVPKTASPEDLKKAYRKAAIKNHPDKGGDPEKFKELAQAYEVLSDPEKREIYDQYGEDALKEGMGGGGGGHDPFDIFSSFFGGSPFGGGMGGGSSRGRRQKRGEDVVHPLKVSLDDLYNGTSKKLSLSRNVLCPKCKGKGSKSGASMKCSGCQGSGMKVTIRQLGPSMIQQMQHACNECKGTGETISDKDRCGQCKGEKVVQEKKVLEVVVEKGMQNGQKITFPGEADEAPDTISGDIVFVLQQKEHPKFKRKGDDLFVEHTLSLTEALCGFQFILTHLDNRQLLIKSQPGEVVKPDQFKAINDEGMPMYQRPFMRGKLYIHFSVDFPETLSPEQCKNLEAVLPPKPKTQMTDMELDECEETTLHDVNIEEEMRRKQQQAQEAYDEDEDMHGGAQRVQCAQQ
UniProt U5Q1Q7: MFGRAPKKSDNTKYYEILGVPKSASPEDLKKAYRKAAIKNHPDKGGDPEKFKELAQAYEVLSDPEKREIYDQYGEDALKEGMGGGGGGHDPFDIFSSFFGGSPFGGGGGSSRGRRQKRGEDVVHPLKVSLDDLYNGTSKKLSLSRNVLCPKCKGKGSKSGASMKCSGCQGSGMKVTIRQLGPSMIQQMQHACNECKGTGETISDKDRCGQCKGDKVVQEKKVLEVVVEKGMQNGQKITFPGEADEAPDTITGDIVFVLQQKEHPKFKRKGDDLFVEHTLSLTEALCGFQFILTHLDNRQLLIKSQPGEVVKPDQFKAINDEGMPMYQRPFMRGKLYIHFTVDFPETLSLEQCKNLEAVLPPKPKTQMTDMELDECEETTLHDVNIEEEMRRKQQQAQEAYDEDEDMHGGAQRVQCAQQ
UniProt U5Q1R1: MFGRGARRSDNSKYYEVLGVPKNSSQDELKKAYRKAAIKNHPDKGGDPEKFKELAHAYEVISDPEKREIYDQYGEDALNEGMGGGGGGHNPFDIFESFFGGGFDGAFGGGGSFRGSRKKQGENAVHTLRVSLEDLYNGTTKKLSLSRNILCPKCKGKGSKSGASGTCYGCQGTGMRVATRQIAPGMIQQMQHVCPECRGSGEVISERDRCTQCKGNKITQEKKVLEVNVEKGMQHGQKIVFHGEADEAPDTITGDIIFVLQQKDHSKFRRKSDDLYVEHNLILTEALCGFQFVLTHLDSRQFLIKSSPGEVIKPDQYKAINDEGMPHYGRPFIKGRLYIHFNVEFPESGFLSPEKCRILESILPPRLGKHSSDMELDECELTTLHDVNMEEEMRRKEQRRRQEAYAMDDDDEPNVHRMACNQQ
UniProt U5PY20: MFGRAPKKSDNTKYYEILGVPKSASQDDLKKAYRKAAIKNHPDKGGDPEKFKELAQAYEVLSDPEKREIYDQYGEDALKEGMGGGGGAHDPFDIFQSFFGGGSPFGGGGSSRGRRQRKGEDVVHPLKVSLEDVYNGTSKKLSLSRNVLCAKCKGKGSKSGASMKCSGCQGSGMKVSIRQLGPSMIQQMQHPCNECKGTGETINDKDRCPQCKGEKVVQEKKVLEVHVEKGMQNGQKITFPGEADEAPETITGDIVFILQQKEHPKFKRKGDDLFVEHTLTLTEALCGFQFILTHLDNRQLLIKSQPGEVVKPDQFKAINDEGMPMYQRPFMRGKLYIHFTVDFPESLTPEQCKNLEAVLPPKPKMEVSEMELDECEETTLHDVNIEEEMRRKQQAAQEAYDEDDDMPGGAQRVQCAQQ
UniProt U5PY93: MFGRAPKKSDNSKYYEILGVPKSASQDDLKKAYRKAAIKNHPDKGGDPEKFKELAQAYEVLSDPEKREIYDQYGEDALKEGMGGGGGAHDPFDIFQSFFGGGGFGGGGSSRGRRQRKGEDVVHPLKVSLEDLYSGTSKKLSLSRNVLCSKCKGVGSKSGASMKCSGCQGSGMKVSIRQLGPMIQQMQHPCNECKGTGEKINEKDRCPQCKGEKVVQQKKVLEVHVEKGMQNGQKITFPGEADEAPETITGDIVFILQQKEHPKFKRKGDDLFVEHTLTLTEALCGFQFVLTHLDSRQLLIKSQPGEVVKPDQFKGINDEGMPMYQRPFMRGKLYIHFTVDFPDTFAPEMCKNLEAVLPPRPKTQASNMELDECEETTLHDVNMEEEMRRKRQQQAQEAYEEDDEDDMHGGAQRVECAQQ
UniProt U5Q1N6: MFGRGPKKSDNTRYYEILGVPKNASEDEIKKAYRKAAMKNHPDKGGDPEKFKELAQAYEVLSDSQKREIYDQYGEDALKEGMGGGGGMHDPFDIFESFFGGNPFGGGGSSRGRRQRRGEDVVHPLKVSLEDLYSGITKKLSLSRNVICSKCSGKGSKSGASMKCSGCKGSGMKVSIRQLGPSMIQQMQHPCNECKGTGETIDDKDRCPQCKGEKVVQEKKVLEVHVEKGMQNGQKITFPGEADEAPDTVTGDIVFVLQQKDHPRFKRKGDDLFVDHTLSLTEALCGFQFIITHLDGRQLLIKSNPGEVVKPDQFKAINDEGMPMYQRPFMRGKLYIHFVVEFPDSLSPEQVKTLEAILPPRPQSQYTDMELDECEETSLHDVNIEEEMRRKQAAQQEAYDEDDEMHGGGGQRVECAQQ

Assay [1] concerns the target T1, BD-Tm-2^2-FL (tomato) (UniProt Q71BG9).
T1 sequence: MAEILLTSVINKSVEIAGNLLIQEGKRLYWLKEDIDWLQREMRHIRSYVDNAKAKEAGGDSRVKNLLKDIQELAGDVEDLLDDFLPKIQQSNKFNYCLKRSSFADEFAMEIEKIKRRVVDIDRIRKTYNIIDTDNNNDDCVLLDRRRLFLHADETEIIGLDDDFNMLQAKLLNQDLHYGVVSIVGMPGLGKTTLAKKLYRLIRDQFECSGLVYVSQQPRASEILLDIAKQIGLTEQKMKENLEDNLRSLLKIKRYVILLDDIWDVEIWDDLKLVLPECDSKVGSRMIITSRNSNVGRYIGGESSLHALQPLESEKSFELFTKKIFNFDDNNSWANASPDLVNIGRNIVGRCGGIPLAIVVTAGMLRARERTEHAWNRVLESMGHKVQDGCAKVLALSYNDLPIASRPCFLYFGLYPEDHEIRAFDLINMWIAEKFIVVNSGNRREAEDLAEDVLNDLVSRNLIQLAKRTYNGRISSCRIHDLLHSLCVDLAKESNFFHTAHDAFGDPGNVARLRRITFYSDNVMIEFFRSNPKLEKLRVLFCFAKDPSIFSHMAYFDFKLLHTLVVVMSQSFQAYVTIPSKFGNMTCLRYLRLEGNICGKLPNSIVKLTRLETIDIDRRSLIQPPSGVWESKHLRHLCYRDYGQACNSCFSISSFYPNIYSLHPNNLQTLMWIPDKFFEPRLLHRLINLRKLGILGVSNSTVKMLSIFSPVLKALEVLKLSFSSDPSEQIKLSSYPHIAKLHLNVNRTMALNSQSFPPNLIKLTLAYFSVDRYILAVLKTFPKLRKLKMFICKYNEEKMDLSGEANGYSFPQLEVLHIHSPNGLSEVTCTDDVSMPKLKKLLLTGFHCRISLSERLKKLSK
Put plainly: two-hybrid; LexA DNA binding domain baits and B42 activation domain preys under galactose-inducible promoters; growth on Leu- plates, X-gal on Gal/Raf, beta-galactosidase activity; 28°C for 5 days.

Assay [2] has as its target BD-NbSGT1 (Nicotiana benthamiana) (UniProt Q84UV7). The assay is described as above.
Assay [3] concerns the target NbSGT1-nLUC (Nicotiana benthamiana) (UniProt Q84UV7). Put plainly: split reporter; firefly luciferase complementation imaging (LCI); nLUC and cLUC fusions co-expressed by agroinfiltration in N. benthamiana leaves; 48-72 hpi; 1 mM luciferin.
The target in assay [4] is T2, Tm-2^2-HA (tomato) (UniProt Q71BG9).
T2 sequence: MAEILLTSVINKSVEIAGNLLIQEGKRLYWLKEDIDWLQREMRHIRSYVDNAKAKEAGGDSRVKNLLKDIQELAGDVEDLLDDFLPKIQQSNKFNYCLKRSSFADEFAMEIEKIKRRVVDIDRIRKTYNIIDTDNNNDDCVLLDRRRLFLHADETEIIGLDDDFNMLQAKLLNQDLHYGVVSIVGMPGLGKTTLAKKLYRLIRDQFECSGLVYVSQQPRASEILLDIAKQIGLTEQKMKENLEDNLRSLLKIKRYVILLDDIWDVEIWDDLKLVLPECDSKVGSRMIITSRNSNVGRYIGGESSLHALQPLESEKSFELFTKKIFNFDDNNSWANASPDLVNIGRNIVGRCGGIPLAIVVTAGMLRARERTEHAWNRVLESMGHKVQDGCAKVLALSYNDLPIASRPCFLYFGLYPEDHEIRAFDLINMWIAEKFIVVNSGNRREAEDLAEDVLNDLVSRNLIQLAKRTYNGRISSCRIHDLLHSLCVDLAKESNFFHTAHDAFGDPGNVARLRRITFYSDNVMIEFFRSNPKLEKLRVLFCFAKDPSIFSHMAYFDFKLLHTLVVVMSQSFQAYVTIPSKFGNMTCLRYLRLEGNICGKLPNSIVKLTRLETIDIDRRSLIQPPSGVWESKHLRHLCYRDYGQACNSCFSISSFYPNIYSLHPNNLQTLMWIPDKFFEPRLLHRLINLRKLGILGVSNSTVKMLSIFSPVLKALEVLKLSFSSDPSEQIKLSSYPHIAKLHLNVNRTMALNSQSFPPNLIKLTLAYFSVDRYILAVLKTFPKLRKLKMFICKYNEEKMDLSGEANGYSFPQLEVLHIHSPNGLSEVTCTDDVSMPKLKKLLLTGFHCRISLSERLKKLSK
Description: co-IP; two tagged proteins co-expressed by agroinfiltration in N. benthamiana leaves; lysates at 48 hpi (2 dpi) precipitated with anti-HA; anti-Myc blot; IP buffer 25 mM Tris pH 7.5, 150 mM NaCl, 1 mM EDTA, 10% glycerol, 0.15% NP-40.

The target in assay [5] is T3, Tm-2^2-cLUC (tomato) (UniProt Q71BG9).
T3 sequence: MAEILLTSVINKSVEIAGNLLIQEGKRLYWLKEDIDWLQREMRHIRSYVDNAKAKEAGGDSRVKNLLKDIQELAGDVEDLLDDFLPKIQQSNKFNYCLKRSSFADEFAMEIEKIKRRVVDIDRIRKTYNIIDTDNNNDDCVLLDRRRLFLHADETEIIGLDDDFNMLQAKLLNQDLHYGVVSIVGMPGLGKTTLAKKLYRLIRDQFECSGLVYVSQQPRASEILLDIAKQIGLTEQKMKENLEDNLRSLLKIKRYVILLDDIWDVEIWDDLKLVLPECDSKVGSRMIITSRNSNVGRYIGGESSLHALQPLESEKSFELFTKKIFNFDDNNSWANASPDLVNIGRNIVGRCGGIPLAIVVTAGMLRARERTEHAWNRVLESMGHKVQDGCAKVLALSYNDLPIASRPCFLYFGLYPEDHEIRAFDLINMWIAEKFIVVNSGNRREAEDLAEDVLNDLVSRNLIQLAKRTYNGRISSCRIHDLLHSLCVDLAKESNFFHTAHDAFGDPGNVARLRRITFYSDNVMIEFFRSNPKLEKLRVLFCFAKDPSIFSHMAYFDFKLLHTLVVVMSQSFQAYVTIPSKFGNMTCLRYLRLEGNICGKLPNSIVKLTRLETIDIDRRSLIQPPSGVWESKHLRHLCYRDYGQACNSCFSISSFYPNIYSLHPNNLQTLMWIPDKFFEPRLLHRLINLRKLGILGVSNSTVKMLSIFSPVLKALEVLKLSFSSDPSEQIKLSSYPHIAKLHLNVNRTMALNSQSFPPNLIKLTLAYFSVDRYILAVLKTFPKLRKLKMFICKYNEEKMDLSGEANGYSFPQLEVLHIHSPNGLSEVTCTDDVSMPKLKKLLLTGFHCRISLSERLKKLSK
Put plainly: split reporter; firefly luciferase complementation imaging (LCI); nLUC and cLUC fusions co-expressed by agroinfiltration in N. benthamiana leaves; 48-72 hpi; 1 mM luciferin.

Assay [6] has as its target BD-NbSGT1 (Nicotiana benthamiana) (UniProt Q84UV7). Description: two-hybrid; LexA DNA binding domain baits and B42 activation domain preys under galactose-inducible promoters; growth on Leu- plates, X-gal on Gal/Raf, beta-galactosidase activity; 28°C for 5 days. The source holds these as a separate data set.
Assay [7] has as its target NbSGT1-HA (Nicotiana benthamiana). Put plainly: co-IP; two tagged proteins co-expressed by agroinfiltration in N. benthamiana leaves; lysates at 48 hpi (2 dpi) precipitated with anti-HA; anti-Myc blot; IP buffer 25 mM Tris pH 7.5, 150 mM NaCl, 1 mM EDTA, 10% glycerol, 0.15% NP-40.

Read-outs that look alike come from different tables or passages of the source. Results are given in words; binding and its absence hold for the method and conditions named. A result given as binding can be weak or reduced; the word gives no strength. For some assays here: Where a sequence is shown, tags or fusion partners need not be part of it. For some assays here: In cells and extracts the contact can be indirect.

Take AD-NbMIP1L1 (Nicotiana benthamiana): in assay [1], the binding entry is on record as “no binding”.

On to AD-NbMIP1.1a (from UniProt U5HUF9), for which the binding result in assay [2] and in assay [1] was “binds” in each case.

Regarding AD-NbMIP1.1b (from UniProt U5Q1Q7), in assay [1], the binding entry is listed as “binds”.

As to NbMIP1L1-cLUC (from UniProt U5Q1R1), the binding result in assay [3] is “binds weakly”.

Consider NbMIP1.3-cLUC (from UniProt U5PY20), for which the binding result in assay [3] is on record as “binds”.

Regarding NbMIP1.1a-Myc (Nicotiana benthamiana), the binding result in assay [4] is reported as “binds”.

Consider nLUC-NbMIP1.4b (Nicotiana benthamiana), for which the binding entry in assay [5] was “binds”.

Regarding nLUC-NbMIP1.3 (Nicotiana benthamiana), in assay [5], the binding result is recorded as “binds”.

As for AD-NbMIP1.2 (from UniProt U5PY93), the binding result in assay [1] is “binds”.

As for NbMIP1.1b-cLUC (from UniProt U5Q1Q7), the binding result in assay [3] is “binds”.

On to NbMIP1.2-cLUC (from UniProt U5PY93), for which the binding result in assay [3] is recorded as “binds”.

As to nLUC-NbMIP1.2 (Nicotiana benthamiana), in assay [5], the binding entry is listed as “binds”.

As for AD-NbMIP1.4a (Nicotiana benthamiana), the binding entry in assay [1] is on record as “binds”.

As for nLUC-NbMIP1.1a (from UniProt U5HUF9), the binding entry in assay [5] was “binds”.

As to nLUC-NbMIP1.4a (Nicotiana benthamiana), the binding result in assay [5] is “binds”.

As for AD-NbMIP1.3 (from UniProt U5PY20), the binding entry in assay [1] is given as “binds”.

Turning to AD-NbMIP1.4b (from UniProt U5Q1N6), the binding entry in assay [1] is reported as “binds”.

On to nLUC-NbMIP1.1b (Nicotiana benthamiana), for which, in assay [5], the binding result is recorded as “binds”.

As for NbMIP1.4b-cLUC (from UniProt U5Q1N6), the binding entry in assay [3] is “binds”.

As for nLUC-NbMIP1L1 (Nicotiana benthamiana), in assay [5], the binding result was “no binding”.

B1: AD-Tm-2^2 (protein, UniProt Q71BG9 1-861)
chain: MAEILLTSVINKSVEIAGNLLIQEGKRLYWLKEDIDWLQREMRHIRSYVDNAKAKEAGGDSRVKNLLKDIQELAGDVEDLLDDFLPKIQQSNKFNYCLKRSSFADEFAMEIEKIKRRVVDIDRIRKTYNIIDTDNNNDDCVLLDRRRLFLHADETEIIGLDDDFNMLQAKLLNQDLHYGVVSIVGMPGLGKTTLAKKLYRLIRDQFECSGLVYVSQQPRASEILLDIAKQIGLTEQKMKENLEDNLRSLLKIKRYVILLDDIWDVEIWDDLKLVLPECDSKVGSRMIITSRNSNVGRYIGGESSLHALQPLESEKSFELFTKKIFNFDDNNSWANASPDLVNIGRNIVGRCGGIPLAIVVTAGMLRARERTEHAWNRVLESMGHKVQDGCAKVLALSYNDLPIASRPCFLYFGLYPEDHEIRAFDLINMWIAEKFIVVNSGNRREAEDLAEDVLNDLVSRNLIQLAKRTYNGRISSCRIHDLLHSLCVDLAKESNFFHTAHDAFGDPGNVARLRRITFYSDNVMIEFFRSNPKLEKLRVLFCFAKDPSIFSHMAYFDFKLLHTLVVVMSQSFQAYVTIPSKFGNMTCLRYLRLEGNICGKLPNSIVKLTRLETIDIDRRSLIQPPSGVWESKHLRHLCYRDYGQACNSCFSISSFYPNIYSLHPNNLQTLMWIPDKFFEPRLLHRLINLRKLGILGVSNSTVKMLSIFSPVLKALEVLKLSFSSDPSEQIKLSSYPHIAKLHLNVNRTMALNSQSFPPNLIKLTLAYFSVDRYILAVLKTFPKLRKLKMFICKYNEEKMDLSGEANGYSFPQLEVLHIHSPNGLSEVTCTDDVSMPKLKKLLLTGFHCRISLSERLKKLSK
Turning to B1, in assay [6], the binding result is on record as “binds”.

B2: Tm-2^2-Myc (protein, UniProt Q71BG9 1-861)
chain: MAEILLTSVINKSVEIAGNLLIQEGKRLYWLKEDIDWLQREMRHIRSYVDNAKAKEAGGDSRVKNLLKDIQELAGDVEDLLDDFLPKIQQSNKFNYCLKRSSFADEFAMEIEKIKRRVVDIDRIRKTYNIIDTDNNNDDCVLLDRRRLFLHADETEIIGLDDDFNMLQAKLLNQDLHYGVVSIVGMPGLGKTTLAKKLYRLIRDQFECSGLVYVSQQPRASEILLDIAKQIGLTEQKMKENLEDNLRSLLKIKRYVILLDDIWDVEIWDDLKLVLPECDSKVGSRMIITSRNSNVGRYIGGESSLHALQPLESEKSFELFTKKIFNFDDNNSWANASPDLVNIGRNIVGRCGGIPLAIVVTAGMLRARERTEHAWNRVLESMGHKVQDGCAKVLALSYNDLPIASRPCFLYFGLYPEDHEIRAFDLINMWIAEKFIVVNSGNRREAEDLAEDVLNDLVSRNLIQLAKRTYNGRISSCRIHDLLHSLCVDLAKESNFFHTAHDAFGDPGNVARLRRITFYSDNVMIEFFRSNPKLEKLRVLFCFAKDPSIFSHMAYFDFKLLHTLVVVMSQSFQAYVTIPSKFGNMTCLRYLRLEGNICGKLPNSIVKLTRLETIDIDRRSLIQPPSGVWESKHLRHLCYRDYGQACNSCFSISSFYPNIYSLHPNNLQTLMWIPDKFFEPRLLHRLINLRKLGILGVSNSTVKMLSIFSPVLKALEVLKLSFSSDPSEQIKLSSYPHIAKLHLNVNRTMALNSQSFPPNLIKLTLAYFSVDRYILAVLKTFPKLRKLKMFICKYNEEKMDLSGEANGYSFPQLEVLHIHSPNGLSEVTCTDDVSMPKLKKLLLTGFHCRISLSERLKKLSK
Take B2: the binding result in assay [7] is “binds”.
